Data as given in PubChem BioAssay AID1224826 (NIAID, 2016)
In all, the deposit lists about 17,000 reagents; this is an unselected part. In the full data, about 1,110 (6.6%) were called active. 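Active means lowered or raised reporter signal; replicate intensities are raw and not normalised per plate.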 Not all columns of the deposit are shown.

Purpose: 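Regulators of Tlr4 signalling leading to Tnf-alpha expression in macrophages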 (primary screen)
Cell system: RAW264.7 G9 macrophages from mouse bearing reporters for p65 (GFP) and the Tnf promoter (mCherry)
Reagents: siRNA pool against mouse genes, 100 nM
Duration: 16 h of LPS stimulation, after 2 days of siRNA transfection
Conditions: bacterial lipopolysaccharide (Salmonella minnesota R595), 10 ng/ml
Measurement: 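Imaged Tnf reporter mCherry in nuclei, minus background, normalised per plate to the median and expressed as robust z-scores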
Scale: Tnf reporter robust z-score: higher = stronger Tnf promoter reporter signal after LPS
Hit rule: 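Called active when robust z-score is at most -1.3, matching the median of the Tlr4 knock-down control, or over 3; control wells and wells with under 50 cells never active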
Meaning of the calls: active = Tnf reporter clearly lowered or raised; inactive = no clear change in Tnf reporter

Cdc42ep4 (CDC42 effector protein 4): Tnf reporter robust z-score = -0.78; fewer than 50 cells in well = enough cells in well; Outcome = inactive
Ddx41 (DEAD box helicase 41): Tnf reporter robust z-score = 1.35; fewer than 50 cells in well = enough cells in well; Outcome = inactive
Or4k45 (olfactory receptor family 4 subfamily K member 45): Tnf reporter robust z-score = -0.64; fewer than 50 cells in well = enough cells in well; Outcome = inactive
Dnajb12 (DnaJ heat shock protein family (Hsp40) member B12): Tnf reporter robust z-score = 3.19; fewer than 50 cells in well = enough cells in well; Outcome = active
Slc4a1ap: Tnf reporter robust z-score = -0.69; fewer than 50 cells in well = enough cells in well; Outcome = inactive
Dhx33 (DEAH-box helicase 33): Tnf reporter robust z-score = -1.67; fewer than 50 cells in well = enough cells in well; Outcome = active
P3h3 (prolyl 3-hydroxylase 3): Tnf reporter robust z-score = 1.25; fewer than 50 cells in well = enough cells in well; Outcome = inactive
Ctsz (cathepsin Z): Tnf reporter robust z-score = 0.29; fewer than 50 cells in well = enough cells in well; Outcome = inactive
Or5ac19 (olfactory receptor family 5 subfamily AC member 19): Tnf reporter robust z-score = -1.33; fewer than 50 cells in well = enough cells in well; Outcome = active
Micu2 (mitochondrial calcium uptake 2): Tnf reporter robust z-score = -1.01; fewer than 50 cells in well = enough cells in well; Outcome = inactive

Next part, starting with the last 2 of the part before.
Or5ac19 (olfactory receptor family 5 subfamily AC member 19): Tnf reporter robust z-score = -1.33; fewer than 50 cells in well = enough cells in well; Outcome = active
Micu2 (mitochondrial calcium uptake 2): Tnf reporter robust z-score = -1.01; fewer than 50 cells in well = enough cells in well; Outcome = inactive
Adcy10 (adenylate cyclase 10): Tnf reporter robust z-score = -0.58; fewer than 50 cells in well = enough cells in well; Outcome = inactive
Ogfod2: Tnf reporter robust z-score = -0.7; fewer than 50 cells in well = enough cells in well; Outcome = inactive
Cfap97 (cilia and flagella associated protein 97): fewer than 50 cells in well = fewer than 50 cells per well; well left out of calls; Outcome = inactive
Cnp (2',3'-cyclic nucleotide 3' phosphodiesterase): Tnf reporter robust z-score = 0.69; fewer than 50 cells in well = enough cells in well; Outcome = inactive
Dzip1l (DAZ interacting protein 1-like): fewer than 50 cells in well = fewer than 50 cells per well; well left out of calls; Outcome = inactive
Cblif (cobalamin binding intrinsic factor): Tnf reporter robust z-score = 0.09; fewer than 50 cells in well = enough cells in well; Outcome = inactive
Vmn1r15 (vomeronasal 1 receptor 15): Tnf reporter robust z-score = 2.96; fewer than 50 cells in well = enough cells in well; Outcome = inactive
Slc71a2: Tnf reporter robust z-score = 0.57; fewer than 50 cells in well = enough cells in well; Outcome = inactive
Apoa5 (apolipoprotein A-V): Tnf reporter robust z-score = 1.43; fewer than 50 cells in well = enough cells in well; Outcome = inactive
Sema6a: Tnf reporter robust z-score = 0.63; fewer than 50 cells in well = enough cells in well; Outcome = inactive
Nyx (nyctalopin): Tnf reporter robust z-score = -0.21; fewer than 50 cells in well = enough cells in well; Outcome = inactive
